Source: article PMC8782181

The chains behind the UniProt entries cited, without tags or fusion partners.
UniProt P53297: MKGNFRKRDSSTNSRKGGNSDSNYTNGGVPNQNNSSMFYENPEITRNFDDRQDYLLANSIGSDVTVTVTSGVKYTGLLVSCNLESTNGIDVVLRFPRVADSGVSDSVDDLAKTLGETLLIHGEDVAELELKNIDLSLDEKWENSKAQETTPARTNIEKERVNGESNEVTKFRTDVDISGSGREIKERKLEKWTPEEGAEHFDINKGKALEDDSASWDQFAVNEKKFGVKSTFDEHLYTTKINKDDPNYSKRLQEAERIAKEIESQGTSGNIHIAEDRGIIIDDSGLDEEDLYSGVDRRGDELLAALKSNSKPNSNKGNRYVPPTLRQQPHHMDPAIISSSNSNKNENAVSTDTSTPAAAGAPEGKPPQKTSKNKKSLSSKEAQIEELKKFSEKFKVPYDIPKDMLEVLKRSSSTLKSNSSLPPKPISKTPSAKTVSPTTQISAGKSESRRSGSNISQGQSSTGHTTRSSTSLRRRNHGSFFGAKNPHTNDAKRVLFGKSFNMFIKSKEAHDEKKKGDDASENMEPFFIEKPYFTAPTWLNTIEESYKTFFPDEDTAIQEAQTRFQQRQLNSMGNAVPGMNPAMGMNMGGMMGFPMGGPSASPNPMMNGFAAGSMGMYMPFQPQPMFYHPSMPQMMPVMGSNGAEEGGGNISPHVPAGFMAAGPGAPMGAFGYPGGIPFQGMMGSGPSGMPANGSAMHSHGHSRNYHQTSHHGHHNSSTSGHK
UniProt P08518: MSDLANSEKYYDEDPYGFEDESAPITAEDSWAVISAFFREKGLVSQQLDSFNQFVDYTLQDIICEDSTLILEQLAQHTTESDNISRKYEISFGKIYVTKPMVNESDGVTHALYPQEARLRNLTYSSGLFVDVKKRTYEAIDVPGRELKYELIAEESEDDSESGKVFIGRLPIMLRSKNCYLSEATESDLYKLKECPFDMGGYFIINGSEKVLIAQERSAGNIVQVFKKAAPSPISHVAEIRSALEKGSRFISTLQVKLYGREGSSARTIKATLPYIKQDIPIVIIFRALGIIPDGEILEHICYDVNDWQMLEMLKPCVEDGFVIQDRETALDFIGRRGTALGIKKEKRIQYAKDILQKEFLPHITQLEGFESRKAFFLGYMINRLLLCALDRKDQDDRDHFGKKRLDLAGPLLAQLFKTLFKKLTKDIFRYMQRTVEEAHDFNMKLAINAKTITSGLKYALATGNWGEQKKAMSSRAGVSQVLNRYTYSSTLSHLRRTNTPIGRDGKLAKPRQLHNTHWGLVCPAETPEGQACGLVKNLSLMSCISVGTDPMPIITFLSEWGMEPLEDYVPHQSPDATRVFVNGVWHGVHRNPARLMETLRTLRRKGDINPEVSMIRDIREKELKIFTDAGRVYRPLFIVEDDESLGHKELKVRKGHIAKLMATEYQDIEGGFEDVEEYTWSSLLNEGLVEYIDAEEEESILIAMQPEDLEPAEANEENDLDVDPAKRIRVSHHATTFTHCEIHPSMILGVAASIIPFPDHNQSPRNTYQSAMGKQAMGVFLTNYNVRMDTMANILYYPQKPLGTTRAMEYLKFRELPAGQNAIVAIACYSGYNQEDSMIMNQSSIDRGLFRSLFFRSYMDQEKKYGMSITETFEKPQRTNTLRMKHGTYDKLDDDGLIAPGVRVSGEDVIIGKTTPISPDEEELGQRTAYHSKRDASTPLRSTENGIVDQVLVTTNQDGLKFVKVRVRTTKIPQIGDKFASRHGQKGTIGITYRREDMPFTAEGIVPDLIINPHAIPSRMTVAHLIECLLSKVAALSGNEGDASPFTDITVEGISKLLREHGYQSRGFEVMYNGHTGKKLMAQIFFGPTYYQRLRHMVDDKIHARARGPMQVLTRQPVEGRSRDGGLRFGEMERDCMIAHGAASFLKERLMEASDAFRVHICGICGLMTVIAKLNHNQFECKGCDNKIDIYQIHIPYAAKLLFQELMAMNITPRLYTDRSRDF
UniProt P30619: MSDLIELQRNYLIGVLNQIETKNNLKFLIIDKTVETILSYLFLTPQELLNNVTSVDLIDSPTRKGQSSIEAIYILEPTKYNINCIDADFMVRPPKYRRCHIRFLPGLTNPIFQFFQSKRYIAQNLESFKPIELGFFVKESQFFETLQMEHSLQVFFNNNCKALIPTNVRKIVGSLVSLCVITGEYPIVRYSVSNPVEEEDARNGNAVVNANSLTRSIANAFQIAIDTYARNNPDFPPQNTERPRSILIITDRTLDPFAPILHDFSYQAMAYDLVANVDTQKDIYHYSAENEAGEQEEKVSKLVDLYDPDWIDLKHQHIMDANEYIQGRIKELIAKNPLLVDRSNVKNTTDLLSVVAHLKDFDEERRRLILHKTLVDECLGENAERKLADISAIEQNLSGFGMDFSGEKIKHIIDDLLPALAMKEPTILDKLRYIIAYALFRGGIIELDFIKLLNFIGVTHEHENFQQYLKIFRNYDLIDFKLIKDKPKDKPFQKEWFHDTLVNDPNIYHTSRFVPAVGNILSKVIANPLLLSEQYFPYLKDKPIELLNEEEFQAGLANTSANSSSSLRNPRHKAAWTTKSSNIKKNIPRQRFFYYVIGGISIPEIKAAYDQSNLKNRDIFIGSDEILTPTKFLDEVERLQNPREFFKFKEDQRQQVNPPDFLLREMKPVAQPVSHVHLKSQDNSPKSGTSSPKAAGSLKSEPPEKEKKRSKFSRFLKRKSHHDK
UniProt P06780: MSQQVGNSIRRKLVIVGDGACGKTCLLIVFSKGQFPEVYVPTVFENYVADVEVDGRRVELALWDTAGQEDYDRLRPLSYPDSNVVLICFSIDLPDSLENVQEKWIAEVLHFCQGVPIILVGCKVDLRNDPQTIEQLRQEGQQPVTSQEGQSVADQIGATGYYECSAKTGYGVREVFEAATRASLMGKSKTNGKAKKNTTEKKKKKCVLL
UniProt P06634: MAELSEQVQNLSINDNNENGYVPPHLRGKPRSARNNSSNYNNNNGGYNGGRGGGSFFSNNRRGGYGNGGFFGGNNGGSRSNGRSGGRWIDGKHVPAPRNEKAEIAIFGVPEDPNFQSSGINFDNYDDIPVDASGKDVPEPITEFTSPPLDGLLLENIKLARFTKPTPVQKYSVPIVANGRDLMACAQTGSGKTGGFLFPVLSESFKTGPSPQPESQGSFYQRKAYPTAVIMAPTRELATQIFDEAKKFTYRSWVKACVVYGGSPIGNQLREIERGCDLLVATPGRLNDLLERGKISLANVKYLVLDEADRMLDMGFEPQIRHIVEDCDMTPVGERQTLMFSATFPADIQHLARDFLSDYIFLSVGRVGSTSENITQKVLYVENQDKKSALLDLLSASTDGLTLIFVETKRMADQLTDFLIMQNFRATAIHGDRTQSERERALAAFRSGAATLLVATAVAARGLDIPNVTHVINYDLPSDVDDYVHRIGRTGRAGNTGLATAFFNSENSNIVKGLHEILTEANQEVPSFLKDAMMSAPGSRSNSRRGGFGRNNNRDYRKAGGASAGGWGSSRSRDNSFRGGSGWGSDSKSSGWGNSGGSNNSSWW
UniProt P19657: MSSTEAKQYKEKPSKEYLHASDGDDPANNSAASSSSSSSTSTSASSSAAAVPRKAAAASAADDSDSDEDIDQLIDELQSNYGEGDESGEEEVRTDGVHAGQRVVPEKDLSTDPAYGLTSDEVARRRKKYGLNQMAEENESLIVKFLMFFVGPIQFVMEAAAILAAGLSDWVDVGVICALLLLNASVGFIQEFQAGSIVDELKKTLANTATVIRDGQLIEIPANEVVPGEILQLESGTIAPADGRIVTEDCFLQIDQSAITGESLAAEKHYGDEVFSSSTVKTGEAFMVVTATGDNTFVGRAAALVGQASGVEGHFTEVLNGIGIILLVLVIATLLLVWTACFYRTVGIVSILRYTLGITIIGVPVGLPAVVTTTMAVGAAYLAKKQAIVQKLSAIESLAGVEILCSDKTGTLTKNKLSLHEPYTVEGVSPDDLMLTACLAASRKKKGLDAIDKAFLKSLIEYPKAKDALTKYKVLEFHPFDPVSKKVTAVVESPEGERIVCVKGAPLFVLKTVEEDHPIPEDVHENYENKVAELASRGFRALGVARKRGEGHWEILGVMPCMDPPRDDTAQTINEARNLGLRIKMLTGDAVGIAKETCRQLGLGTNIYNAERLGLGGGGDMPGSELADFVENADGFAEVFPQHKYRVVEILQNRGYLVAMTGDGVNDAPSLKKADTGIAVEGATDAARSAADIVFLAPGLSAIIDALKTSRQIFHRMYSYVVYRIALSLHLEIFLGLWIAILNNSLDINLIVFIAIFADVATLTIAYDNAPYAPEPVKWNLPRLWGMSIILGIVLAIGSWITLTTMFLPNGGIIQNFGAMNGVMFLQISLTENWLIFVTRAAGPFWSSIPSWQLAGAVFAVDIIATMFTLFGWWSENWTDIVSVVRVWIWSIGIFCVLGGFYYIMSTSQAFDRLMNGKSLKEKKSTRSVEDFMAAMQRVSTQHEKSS
UniProt P28007: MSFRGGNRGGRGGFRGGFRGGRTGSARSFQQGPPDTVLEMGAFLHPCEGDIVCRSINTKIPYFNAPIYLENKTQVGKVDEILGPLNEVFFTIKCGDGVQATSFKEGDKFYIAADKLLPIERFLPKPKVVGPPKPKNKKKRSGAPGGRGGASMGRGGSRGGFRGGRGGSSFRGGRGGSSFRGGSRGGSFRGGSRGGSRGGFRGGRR
UniProt Q04373: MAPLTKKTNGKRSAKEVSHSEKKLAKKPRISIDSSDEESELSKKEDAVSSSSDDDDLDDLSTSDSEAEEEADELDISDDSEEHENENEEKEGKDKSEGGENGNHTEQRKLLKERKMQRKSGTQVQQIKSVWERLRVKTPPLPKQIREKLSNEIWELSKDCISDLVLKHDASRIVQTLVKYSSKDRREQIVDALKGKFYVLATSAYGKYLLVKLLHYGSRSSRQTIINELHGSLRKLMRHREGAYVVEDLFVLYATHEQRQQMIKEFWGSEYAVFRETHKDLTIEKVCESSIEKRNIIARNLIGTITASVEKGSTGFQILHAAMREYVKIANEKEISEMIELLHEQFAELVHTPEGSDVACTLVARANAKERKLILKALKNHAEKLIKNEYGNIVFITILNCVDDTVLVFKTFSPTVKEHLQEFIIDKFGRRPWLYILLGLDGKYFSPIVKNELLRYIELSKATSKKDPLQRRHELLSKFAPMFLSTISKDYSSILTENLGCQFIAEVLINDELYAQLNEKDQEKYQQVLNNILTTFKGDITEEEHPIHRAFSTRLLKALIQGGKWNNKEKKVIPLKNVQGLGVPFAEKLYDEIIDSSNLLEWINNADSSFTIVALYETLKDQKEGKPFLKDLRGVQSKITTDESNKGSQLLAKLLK
UniProt P04147: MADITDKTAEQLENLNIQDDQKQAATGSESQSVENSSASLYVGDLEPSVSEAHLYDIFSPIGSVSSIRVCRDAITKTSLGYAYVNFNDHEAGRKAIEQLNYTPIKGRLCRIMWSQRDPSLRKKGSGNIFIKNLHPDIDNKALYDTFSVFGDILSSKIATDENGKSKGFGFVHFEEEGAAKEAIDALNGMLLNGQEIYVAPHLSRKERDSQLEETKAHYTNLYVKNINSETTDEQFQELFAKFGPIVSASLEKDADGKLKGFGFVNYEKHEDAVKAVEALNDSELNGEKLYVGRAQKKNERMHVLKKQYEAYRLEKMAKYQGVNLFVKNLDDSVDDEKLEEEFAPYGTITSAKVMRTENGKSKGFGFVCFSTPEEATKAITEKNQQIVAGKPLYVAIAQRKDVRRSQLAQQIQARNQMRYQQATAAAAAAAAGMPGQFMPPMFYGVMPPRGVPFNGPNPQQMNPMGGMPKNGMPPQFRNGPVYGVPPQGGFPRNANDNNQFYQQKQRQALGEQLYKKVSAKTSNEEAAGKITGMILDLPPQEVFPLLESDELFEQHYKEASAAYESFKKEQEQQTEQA
UniProt P40217: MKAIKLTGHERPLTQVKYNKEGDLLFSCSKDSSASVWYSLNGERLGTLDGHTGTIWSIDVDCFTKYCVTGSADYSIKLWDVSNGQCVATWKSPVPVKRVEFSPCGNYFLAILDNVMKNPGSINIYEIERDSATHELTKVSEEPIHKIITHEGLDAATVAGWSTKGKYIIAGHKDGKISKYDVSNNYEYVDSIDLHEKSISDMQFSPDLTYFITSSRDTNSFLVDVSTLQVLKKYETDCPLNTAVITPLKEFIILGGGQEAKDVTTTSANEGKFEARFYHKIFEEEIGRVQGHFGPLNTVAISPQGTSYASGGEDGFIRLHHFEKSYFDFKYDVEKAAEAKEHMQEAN
UniProt P15646: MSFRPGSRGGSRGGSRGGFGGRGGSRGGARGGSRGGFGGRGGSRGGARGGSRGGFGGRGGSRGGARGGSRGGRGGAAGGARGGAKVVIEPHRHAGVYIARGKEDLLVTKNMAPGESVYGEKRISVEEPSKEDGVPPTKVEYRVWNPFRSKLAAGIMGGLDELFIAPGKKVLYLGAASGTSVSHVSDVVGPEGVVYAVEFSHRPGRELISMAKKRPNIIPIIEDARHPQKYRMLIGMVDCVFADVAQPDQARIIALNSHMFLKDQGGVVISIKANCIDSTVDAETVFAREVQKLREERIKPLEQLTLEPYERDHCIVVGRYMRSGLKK

What was measured:
Dcp1-myc (S. cerevisiae) [1] = target: T1, Dcp1-myc (S. cerevisiae) (UniProt Q12517); assay: affinity purification with mass spectrometry; cells unstressed or glucose-depleted (10 min for Dcp1-myc, 60 min for Pbp1-myc), cross-linked with 0.8% formaldehyde; 20,000 g pellet of the lysate in Blob100 buffer (20 mM Tris-HCl pH 8, 100 mM NaCl, 1 mM MgCl2, 0.5% NP40) on anti-c-Myc magnetic beads, eluted with Myc peptide; label-free LC-MS/MS; hits are the proteins that cluster (Mfuzz) with the tagged bait across IP, pellet, supernatant, total and unbound fractions
T1 sequence: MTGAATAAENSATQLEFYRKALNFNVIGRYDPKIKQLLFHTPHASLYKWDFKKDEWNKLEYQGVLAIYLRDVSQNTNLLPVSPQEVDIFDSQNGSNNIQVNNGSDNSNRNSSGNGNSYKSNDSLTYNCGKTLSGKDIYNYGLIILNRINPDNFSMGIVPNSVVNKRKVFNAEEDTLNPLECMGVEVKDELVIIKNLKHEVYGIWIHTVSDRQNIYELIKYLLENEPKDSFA

Pbp1-myc (S. cerevisiae) [2] = target: Pbp1-myc (S. cerevisiae) (UniProt P53297); assay: as above
[3] = target: T2, Dcp1-myc (S. cerevisiae), Q12517; assay: affinity purification with mass spectrometry; cells unstressed or glucose-depleted (10 min for Dcp1-myc, 60 min for Pbp1-myc), cross-linked with 0.8% formaldehyde; 20,000 g pellet of the lysate in Blob100 buffer (20 mM Tris-HCl pH 8, 100 mM NaCl, 1 mM MgCl2, 0.5% NP40) on anti-c-Myc magnetic beads, eluted with Myc peptide; label-free LC-MS/MS; hits are the proteins that cluster (Mfuzz) with the tagged bait across …; details: remark: other sources report otherwise
T2 chain: T1 sequence

Dcp1-myc (S. cerevisiae) [4] = target: T1, Dcp1-myc (S. cerevisiae); assay: affinity purification with mass spectrometry; cells unstressed or glucose-depleted (10 min for Dcp1-myc, 60 min for Pbp1-myc), cross-linked with 0.8% formaldehyde; 20,000 g pellet of the lysate in Blob100 buffer (20 mM Tris-HCl pH 8, 100 mM NaCl, 1 mM MgCl2, 0.5% NP40) on anti-c-Myc magnetic beads, eluted with Myc peptide; label-free LC-MS/MS; hits are the proteins that cluster (Mfuzz) with the tagged bait across IP, pellet, supernatant, total and unbound fractions; remark: listed apart in the source
Pbp1-myc (S. cerevisiae) [5] = target: Pbp1-myc (S. cerevisiae) (UniProt P53297); assay: as above; remark: listed apart in the source

Pbp1 (from UniProt P53297 1-722) was tested, and the binding (Dcp1-myc (S. cerevisiae) [1]) was “binds”.

With Sup35 (from UniProt P05453 1-685) the binding (Pbp1-myc (S. cerevisiae) [2]) was “binds”.

Xrn1 (from UniProt P22147 1-1528) was tested, and the binding (Dcp1-myc (S. cerevisiae) [1]) was “binds”.

With Rpb2 (from UniProt P08518 1-1224) the binding (Pbp1-myc (S. cerevisiae) [2]) was “binds”.

With Sec1 (from UniProt P30619 1-724) the binding (Pbp1-myc (S. cerevisiae) [2]) was “binds”.

Rho1 (from UniProt P06780 1-209) was tested, and the binding (Pbp1-myc (S. cerevisiae) [2]) was “binds”.

For Ded1 (from UniProt P06634 1-604), the binding (Pbp1-myc (S. cerevisiae) [2]) was “binds”.

With Pma1 (from UniProt P05030 1-918) the binding (Pbp1-myc (S. cerevisiae) [2]) was “binds”.

In the case of Pma2 (from UniProt P19657 1-947), the binding (Dcp1-myc (S. cerevisiae) [1]) is reported as “binds” and the binding (Pbp1-myc (S. cerevisiae) [2]) is reported as “binds”.

With Gar1 (from UniProt P28007 1-205) the binding (Pbp1-myc (S. cerevisiae) [2]) was “binds”.

For Puf6 (from UniProt Q04373 1-656), the binding (Pbp1-myc (S. cerevisiae) [2]) was “binds”.

Snq2 (from UniProt P32568 1-1501) was tested, and the binding (Dcp1-myc (S. cerevisiae) [1]) was “binds” and the binding (Pbp1-myc (S. cerevisiae) [2]) was “binds”.

With Pab1 (from UniProt P04147 1-577) the binding (Dcp1-myc (S. cerevisiae) [1]) was “binds” and the binding (Pbp1-myc (S. cerevisiae) [2]) was “binds”.

In the case of Yck2 (from UniProt P23292 1-546), the binding (Dcp1-myc (S. cerevisiae) [1]) is reported as “binds” and the binding (Pbp1-myc (S. cerevisiae) [2]) is reported as “binds”.

For eIF3i (from UniProt P40217 1-347), the binding (Pbp1-myc (S. cerevisiae) [2]) was “binds”.

Nop1 (from UniProt P15646 1-327) was tested, and the binding (Pbp1-myc (S. cerevisiae) [2]) was “binds”.

B1: Lsm1, P47017 1-172 (protein)
chain: MSANSKDRNQSNQDAKRQQQNFPKKISEGEADLYLDQYNFTTTAAIVSSVDRKIFVLLRDGRMLFGVLRTFDQYANLILQDCVERIYFSEENKYAEEDRGIFMIRGENVVMLGEVDIDKEDQPLEAMERIPFKEAWLTKQKNDEKRFKEETHKGKKMARHGIVYDFHKSDMY
B1 was tested, and the binding [3] was “binds”.

B2: Svl3 (protein, UniProt Q03088 1-825)
chain: MSSSSLRVLAIGNNPNILFYTSRFQLAKNIDLYHVNDSKSCQFEIETEYYGKDRFELENHFTSIEHLTEALSSKSSEAVFDIIIMSAPSLQELSSLASKLTSIIDSNTKIFLESSGFIQLEPFVKLSMESPHVNVFSILTDLDIRQIGPNHFKHFPSTAKENTIYLGESKSSTEKYSSGVITLLTTFEKLFAKLFSNIKINLCNFSSIEFLSQQWKLAISRICFDPLLIMFEQENPSDLDQQIIAKPLISGLVTEIITVAKTMGARLNSSHDNENSLLSLWKNSYHSTNKPPALVYHFIHQTTPLNIDILLLQTILLADDFGIKTPYLEFLYSVLSQFERLNSGKSKWFIRSDEKTQILQSLQKSQKNESALQTQITSLQGQISKLRQELLMQAKQHEMETNELKEKHQVALKAQAQAQAQAQSQAQTSIEALTPTEATNQSDTNEYKATGTPNLRDIEDMALYSVNYGDSPVRSPPPVVSSQPQMNSPLSSHSQTFGENNGTNDKLLQERELQLRKKELELQERELEFQKRALQQQRFNNSNNSIPRKPSFPQLQQSANVRSNSRGMHGTNGAMSQPASAGNFVDPISSSIAAYDPQQPPSLPLQQPQQSVQVQPFHSHSIKPTSRKNRNSNMPNIGNPSSINMSDFGRPPNNSSQTRLNSMPTHSIVNQNRLRSQQSKNKLNMPHATNPNNTFNQVPAPSLNNHVPTQRQFSSSTMIEVTNNNNKVNNSSSNPDISTNSVVHNAMQFTNTNNNTSSTVDINDPKNIAPPPTTSVSAPSTPTLSSSSQMANMASPSTDNGDNEEKNGGKKKRFGLFKKKNKSKK
With B2 the binding (Dcp1-myc (S. cerevisiae) [4]) was “binds” and the binding (Pbp1-myc (S. cerevisiae) [5]) was “binds”.

B3: Syh1 (protein, UniProt Q02875 1-849)
chain: MNPINSLAFDLHSVKLADANSDTAALSNSNTPTMNNAALLQRPSSIMDSIGVQRVPSPFVPGSNAISGASTVPFNAYDAEITGSPLQISANQENNSAFSAASSNLHMNASSPSVLNKPSSTFPNVAPYLYNATGPAPNVGNQPPPPGIESQWKYIDSNGNIQGPFGTNNMSQWYQGGYFTPTLQICRLATSPEPFGVNDRFIRLGELTTLVNNYQDPFVAFDFIVIRALNAVPLVAPTSSEKQKVESRDLIPVADVHSDDFTYEEILGLKFEDGSYYHETQVWVPVDGRHITKVDRIPKISAYTAPLSTTSSRSNKTTSSHEEKVPSHEEASPEEQEVFSEEGRTVSNITNEEESIVKNPTKQEEESRGSEKEQNILDQVQPEIEEVDRKDVISTADEPKSKDTPQMTSEEQKRFAKAELMAQKLLEEQQRQEEEKKRREEQRKLKKEKKLKQKQKKEEEKLKKKKKEEGKLEKEKQKELLNNILTGDTETPSSENTATSITTNLAPWANKKPEGAVYNQISSALEDLKKENSSKKEKKPNRTQLDREQALKLQKEILSSAQIPKTQTGSAWGIKPQQPIKVDIKGELMKDSTKINSQSKINKANNGDIKPDSTFIEEQKKLWEQVQKKTKKFNRASSLDDFISRTPSPSSSALNSSNTSNAWTTVSSKSTTHIASTMPVAGNQSKSYISLDTLRSSGGLSTATKTKMSDKSKQIGSSTSIPTLKARQVKPSRIPAYPGNASVSKRQEFLRWCRSQLKLNTGVQPDNVLEMLLSLPPGSESKEIIADTIYSYSSTMDGRRFATDFIKKRLECEEEINDPLSWSEVLAMPEGSSEDWEFQVVGKKKGKRF
With B3 the binding (Dcp1-myc (S. cerevisiae) [4]) was “binds” and the binding (Pbp1-myc (S. cerevisiae) [5]) was “binds”.

B4: Cdc73 (protein, UniProt Q06697 1-393)
chain: MANSLDRLREHLKNGDKLVLKNNEGQSTDDITKATMVETLSSDGSTQDSFPLNEETEIEIDGSLVQLRIIVHCWMNKDSSAADYLADCQNKQLTNVSFLQRTDLINWLSGNTESSQYLKAPGQKGETSDKVDIENKTLAGELSTVKSTTSASLENDSEVSDPVVVETMKHERILVDHNSALRGAKPINFGYLIKDAELKLVQSIKGSLRGSKLPPGHKGAHGRISKTNGSSGGPRKDPIILIPSAASSILTVANIKQFLLESKYVNPRNLPSVPNGLVNIEKNFERISRPIRFIIVDNTRMFTKPEYWDRVVAIFTTGHTWQFNNYQWNSPQELFQRCKGYYFHFAGDSVPQHVQQWNVEKVELDKNKRFKDVEVVRYFWHSLEKELISRGYR
For B4, the binding (Dcp1-myc (S. cerevisiae) [4]) was “binds” and the binding (Pbp1-myc (S. cerevisiae) [5]) was “binds”.

B5: Cdc12 (protein, UniProt P32468 1-407)
chain: MSAATATAAPVPPPVGISNLPNQRYKIVNEEGGTFTVMLCGESGLGKTTFINTLFQTVLKRADGQQHRQEPIRKTVEIDITRALLEEKHFELRVNVIDTPGFGDNVNNNKAWQPLVDFIDDQHDSYMRQEQQPYRTKKFDLRVHAVLYFIRPTGHGLKPIDIETMKRLSTRANLIPVIAKADTLTAQELQQFKSRIRQVIEAQEIRIFTPPLDADSKEDAKSGSNPDSAAVEHARQLIEAMPFAIVGSEKKFDNGQGTQVVARKYPWGLVEIENDSHCDFRKLRALLLRTYLLDLISTTQEMHYETYRRLRLEGHENTGEGNEDFTLPAIAPARKLSHNPRYKEEENALKKYFTDQVKAEEQRFRQWEQNIVNERIRLNGDLEEIQGKVKKLEEQVKSLQVKKSHLK
In the case of B5, the binding (Dcp1-myc (S. cerevisiae) [4]) is reported as “binds” and the binding (Pbp1-myc (S. cerevisiae) [5]) is reported as “binds”.

B6: Chs5 (protein, UniProt Q12114 1-671)
chain: MSSVDVLLTVGKLDASLALLTTQDHHVIEFPTVLLPENVKAGSIIKMQVSQNLEEEKKQRNHFKSIQAKILEKYGTHKPESPVLKIVNVTQTSCVLAWDPLKLGSAKLKSLILYRKGIRSMVIPNPFKVTTTKISGLSVDTPYEFQLKLITTSGTLWSEKVILRTHKMTDMSGITVCLGPLDPLKEISDLQISQCLSHIGARPLQRHVAIDTTHFVCNDLDNEESNEELIRAKHNNIPIVRPEWVRACEVEKRIVGVRGFYLDADQSILKNYTFPPVNEEELSYSKENEPVAEVADENKMPEDTTDVEQVASPNDNESNPSEAKEQGEKSGHETAPVSPVEDPLHASTALENETTIETVNPSVRSLKSEPVGTPNIEENKADSSAEAVVEEPNEAVAESSPNEEATGQKSEDTDTHSNEQADNGFVQTEEVAENNITTESAGENNEPADDAAMEFGRPEAEIETPEVNESIEDANEPAEDSNEPVEDSNKPVKDSNKPVEDSNKPVEDSNKPVEDSNKPVEDANEPVEDTSEPVEDAGEPVQETNEFTTDIASPRHQEEDIELEAEPKDATESVAVEPSNEDVKPEEKGSEAEDDINNVSKEAASGESTTHQKTEASASLESSAVTEEQETTEAEVNTDDVLSTKEAKKNTGNSNSNKKKNKKNKKKGKKK
For B6, the binding (Dcp1-myc (S. cerevisiae) [4]) was “binds” and the binding (Pbp1-myc (S. cerevisiae) [5]) was “binds”.

Where two headings read alike, the source gives them in different places. Results are given in words; binding and its absence hold for the method and conditions named. Binding seen in cells or lysates may run through a third protein. A yes stands for co-enrichment or nearness to the bait. Other partners may have been found. For some of these results: Sequences can lack the tags named with a protein.
